Laboratory results reported in article PMC9720522 (Food Chemistry: X, 2022).

System: mAb against AZN (35D1D2)
Experiment: indirect competitive ELISA
Type: binding, mouse
Details: ic-ELISA; coating antigen 0.23 and mAb 0.38 µg/mL

IC50: ˃1000 ng/mL
SMILES: O=C(CCCN1CCC(O)(c2ccc(Cl)cc2)CC1)c1ccc(F)cc1 [HAL, haloperidol]
